Measurements published in PubChem BioAssay AID493014 (National Center for Advancing Translational Sciences (NCATS), 2011).
The whole screen tested about 340,000 compounds, of which about 170 (0.05%) were called active. The inconclusive results got no clear call from the source; some entries with a clear call stand among them for comparison. The call rests on the fitted dose curve; in most records, active means well fitted inhibition curve with a large enough effect in the signal ratio, with a control signal flat (not every such curve was filed as active); inconclusive means small, poorly fitted or top-dose-only effect, or effect the other way, or a change in a side signal; inactive means flat fitted curve, though single readings scatter; the % refers to the signal ratio. Potencies beside an inconclusive call are fits to weak or partial responses and may not hold up.

assay: qHTS Assay to Find Inhibitors of Chronic Active B-Cell Receptor Signaling; conditions: ABC-DLBCL IkBa-CBG/CBR reporter, luminescence ratio (green luciferase fused to IkBa over red control in TMD8 lymphoma cells), 4 h; activity change, negative = inhibition: at 46.1 µM (top of the series);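 on activity change, negative = inhibition: plate controls were basal doxycycline-induced cells for no effect and cells given 10 µM MG132 for full effect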
Summary of the method: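 TMD8 ABC-DLBCL cells carrying doxycycline-inducible green luciferase fused to IkappaBalpha plus unfused red luciferase were exposed to compounds (up to 46 uM) for 4 hrs at 37C. Activity came from the overlap-corrected green/red luminescence ratio.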
Potency means the concentration at half of the fitted maximal effect.

Row | SMILES | activity change, negative = inhibition | Potency
1 | C/C(CC(=O)N1CCCC1)=N\NC(=O)c1cc2ccccc2cc1O | inconclusive: -19.1% | 
2 | CCOC(=O)C1=C(CC)Nc2ccccc2N/C1=N\S(=O)(=O)c1ccccc1OC | inactive | 
3 | COc1cccc(C(=O)Nc2ccc(NC(C)=O)cc2)c1 |  | inconclusive: 1.64 µM [falling, partial curve]
4 | O=C(Nc1cc(C(F)(F)F)ccc1N1CCCC1)C1CCCO1 (stereo unspecified) | inconclusive: 7.98% | 
5 | COCCN=c1scc(-c2ccco2)n1/N=C/c1ccc(O)c(O)c1O | inactive | 
6 | Oc1ccc(-c2nc3ccccn3c2NCc2ccc3c(c2)OCO3)cc1 | inconclusive: 2.38% | 
7 | O=C(OCc1cc(=O)oc2cc(O)ccc12)c1cc(S(=O)(=O)N2CCOCC2)ccc1F | inconclusive: -5.73% | 
8 | Cc1ccc(OC(C)C(=O)Nc2cc(C)on2)cc1 (stereo unspecified) | inconclusive: 4.95% | 
9 | COc1ccc(N(CC(=O)N2CCCCCC2)S(=O)(=O)c2c(C)[nH]c(=O)[nH]c2=O)cc1 | inconclusive: -8.59% | 
10 | CC1=C(C(=O)OC2CCCCC2)C(c2ccc(C)o2)C2=C(CC(C)(C)CC2=O)N1 (stereo unspecified) | inactive | 
11 | O=C(Cc1c[nH]c2ccccc12)NC1(C(=O)NC2CCCCC2)CCCCC1 | inconclusive: -12.1% | 
12 | O=C(c1cccs1)N(Cc1cccnc1)c1nc2c(Cl)cccc2s1 |  | inconclusive: 11.2 µM [rising, single point]
13 | COc1ccccc1/C=C/C(=O)OCC(=O)NC1CCCCCC1 |  | inconclusive: 9.2 µM [falling, partial curve]
14 | CN(C)CCN(C(=O)CCS(=O)(=O)c1ccccc1)c1nc2c(F)cccc2s1 | inactive | 
15 | CC(=O)c1cc2ccc(O)cc2oc1=O | inactive | 
16 | NC(=O)C1CCN(C(=O)COc2ccc(Nc3ccccc3)cc2)CC1 | inconclusive: 3.67% | 
17 | CN(C)C(=O)[C@@H]1C[C@H]1[C@@H](NC(=O)OCc1ccccc1)c1ccccc1 | inconclusive: -18.5% | 
18 | CCOc1ccccc1N(C(=O)c1ccco1)C(C(=O)NC1CCCC1)c1cccnc1 (stereo unspecified) | inconclusive: 4.68% | 
19 | CCCCCCSc1cccc(-c2nc3ccc(Cl)cn3c2NCc2ccccc2)c1 | inactive | 
20 | Cc1noc(C)c1NC(=O)Nc1ccc2c(c1)CC(=O)N([C@H](C)CO)C[C@@H](C)[C@H](CN(C)CC1CCCCC1)O2 | inactive | 
21 | CC1C=CCC2C(=O)N(c3cccc(C(=O)Nc4ccc(Br)cc4)c3)C(=O)C12 (stereo unspecified) | inconclusive: -0.573% | 

Exported field by field: two of the compounds above.
Cc1noc(C)c1NC(=O)Nc1ccc2c(c1)CC(=O)N([C@H](C)CO)C[C@@H](C)[C@H](CN(C)CC1CCCCC1)O2
  activity change, negative = inhibition: inactive
CC1C=CCC2C(=O)N(c3cccc(C(=O)Nc4ccc(Br)cc4)c3)C(=O)C12 (stereo unspecified)
  activity change, negative = inhibition: inconclusive: -0.573%

Retrieved by structure from the entries so far:
Row | SMILES | activity change, negative = inhibition | Potency
19 | CCCCCCSc1cccc(-c2nc3ccc(Cl)cn3c2NCc2ccccc2)c1 | inactive | 
6 | Oc1ccc(-c2nc3ccccn3c2NCc2ccc3c(c2)OCO3)cc1 | inconclusive: 2.38% | 

Later entries

Row | SMILES | activity change, negative = inhibition | Potency
22 | Cc1ccc(NNC2CC(=O)N(c3cccc(Cl)c3)C2=O)cc1 (stereo unspecified) |  | inconclusive: 22.4 µM [falling, single point]
23 | COc1ccc(C(=O)NCCS(=O)(=O)NCCc2ccccc2)cc1 | inactive | 
24 | CC(=O)Nc1ccc2oc(-c3ccccc3)nc2c1 |  | inconclusive: 35.5 µM [falling, single point]
25 | CN(CC(=O)NCc1ccco1)S(=O)(=O)c1ccc2c(c1)n(C)c(=O)c(=O)n2C |  | inconclusive: 23.1 µM [falling, partial curve, poor fit]
26 | COc1ccc(/C=N/c2c(-c3ccco3)nc3ccccn23)cc1OC | inactive | 
27 | Cc1cccnc1CNC(=O)C1CCC(=O)N(CCc2cccc(F)c2)C1 (stereo unspecified) | inactive | 
28 | CC1CCN(CC(=O)Nc2ccc(S(=O)(=O)NC3CC3)cc2)CC1 | inconclusive: 1.13% | 
29 | Cc1cc(N2C(=O)C=CC2=O)c([N+](=O)[O-])cc1C | inconclusive: 11.2% | 
30 | Cn1c(=O)n(C)c2cc(NC(=O)CSc3ccccc3)ccc21 | inactive | 
31 | CNC(=O)COc1coc(CN2CCN(C(=O)c3ccco3)CC2)cc1=O | inactive | 
32 | O=C(Nc1cc(Cl)c(O)c(Cl)c1)C1CCCO1 (stereo unspecified) | inconclusive: -16.5% | 
33 | CC(C)C(NC(=O)c1ccco1)C(=O)NCC(c1ccco1)N1CCCCC1 (stereo unspecified) | inconclusive: 4.36% | 
34 | CCCC1CCc2c(c3ccccc3[nH]c2=O)O1 (stereo unspecified) |  | inconclusive: 23.1 µM [falling, partial curve, poor fit]
35 | C/C(=N\Nc1ccc(C(=O)O)cc1)c1ccc(-n2ccnc2)cc1 | inconclusive: 313% | 
36 | CCOc1cccc(/C=C/c2ccc3ccccc3n2)c1OC(C)=O |  | inconclusive: 31.6 µM [falling, single point]
37 | CCOC(=O)c1ccc(NC(=S)NCCC2=CCCCC2)cc1 |  | inconclusive: 20.6 µM [falling, partial curve]
38 | CCCNC(=S)Nc1cc2oc3ccccc3c2cc1OC | inconclusive: 13.8% | 
39 | COc1cc(NC(=O)COC(=O)C2CC2)c(C)cc1[N+](=O)[O-] | inconclusive: -1.64% | 
40 | COCCN(CCOc1cc(C)cc(C)c1)Cc1ccc(Cl)cc1 | inconclusive: 3.72% | 
41 | Cc1ccc(S(=O)(=O)NCCC(=O)Nc2nccs2)cc1 | inconclusive: 10.4% | 
42 | Cc1c(C(=O)N2CCN(c3ccccn3)CC2)oc2c(F)cccc12 | inconclusive: -26% | 

Row | SMILES | activity change, negative = inhibition | Potency
43 | COc1cc(C(=O)OCC(=O)N2CC(C)OC(C)C2)cc(OC)c1OC (stereo unspecified) | inconclusive: -3.68% | 
44 | COc1cc(SC)ccc1C(=O)Nc1cccc(S(=O)(=O)NC2=NCCC2)c1 | inconclusive: -5.72% | 
45 | Cc1ccccc1OCC(=O)OCC(=O)c1ccc(-c2ccccc2)cc1 | inconclusive: 1.09% | 
46 | C=CCSc1cc(C)nc2c(-c3ccc(Cl)cc3)c(C)nn12 | inactive | 
47 | Clc1cccc(N/N=C(\Cc2nc3ccccc3[nH]2)c2ccccc2)c1 |  | inconclusive: 29.1 µM [rising, partial curve, poor fit]
48 | COc1ccc(C2=C(c3ccc(OC)c(OC)c3)CN3CCCCC3C2)cc1 (stereo unspecified) |  | inconclusive: 18.4 µM [falling, single point]
49 | CCCCn1nc(C(=O)Nc2nc3c(s2)CCCC3)c2ccccc2c1=O | inconclusive: 5.97% | 
50 | CC1=C(C)CS(=O)N(S(=O)(=O)c2ccccc2)C1 (stereo unspecified) | inconclusive: -13.3% | 
51 | CCOC(=O)c1ccccc1NC(=O)CSc1nnnn1C1CCCCC1 | inconclusive: -1.79% | 
52 | COc1ccc(C2C(C(=O)OCC3CCCO3)=C(C)NC3=C2C(=O)CC(c2ccco2)C3)cc1O (stereo unspecified) | inactive | 
53 | COC(=O)c1c(C)[nH]c(C(=O)C(C)OC(=O)C2CC(=O)N(CCc3ccccc3)C2)c1C (stereo unspecified) | inactive | 
54 | Cc1csc(Sc2ccc([N+](=O)[O-])cc2C(=O)OCC(=O)NC2CCCC(C)C2C)n1 (stereo unspecified) | inactive | 
55 | CSc1nc(Sc2ccccc2Cl)c2ccccc2n1 |  | inconclusive: 23.1 µM [falling, single point]
56 | CC(C)CCNC(=O)CCc1nnc2n(CCCOC(C)C)c(=O)c3ccccc3n12 | inconclusive: 5.52% | 
57 | O=C1C=C(c2ccc(Cl)c(C(F)(F)F)c2)C[C@@H](c2ccc(F)cc2)C1 | inconclusive: 10.1% | 
58 | O=C(CCCOc1ccc(Cl)cc1)Nc1cccc(C(=O)O)c1 | inconclusive: -21.2% | 
59 | CCc1nc(OCC(=O)c2ccccc2)c(C#N)c2c1COC(C)(C)C2 |  | inconclusive: 1.46 µM [rising, partial curve, poor fit]
60 | O=C(NC1CCCCCC1)c1c(F)c(F)c(F)c(F)c1F | inactive | 
61 | CC(=O)Nc1ccc(N(CC(O)Cn2c3ccccc3c3ccccc32)S(=O)(=O)c2ccc(C)cc2)cc1 (stereo unspecified) | inconclusive: 5.74% | 
62 | CCC(C)(C)NC(=O)CN(C(=O)CNS(=O)(=O)c1ccccc1)c1ccc2c(c1)OCCO2 | inconclusive: -14.5% | 
63 | CN(C)C(=O)c1ccc(NC(=O)COC(=O)c2cc(S(=O)(=O)N(C)C)ccc2N2CCCC2)cc1 | inconclusive: -0.667% | 

Row | SMILES | activity change, negative = inhibition | Potency
64 | Cc1[nH]n(-c2ccc([N+](=O)[O-])cc2)c(=O)c1C=NCCN1CCN(C(=O)c2ccc(F)cc2)CC1 |  | inconclusive: 4.11 µM [falling, single point]
65 | CCN(CC)CCCOc1ccc(Cl)c(Cl)c1 | inactive | 
66 | CCOc1cc(Br)cc(/C=N/NC(=O)c2cccnc2)c1O | inactive | 
67 | O=C(CSC1CC(=O)N(CC(c2ccccc2)c2ccccc2)C1=O)Nc1ccc(Cl)cc1 (stereo unspecified) | inconclusive: -1.54% | 
68 | CCOC(=O)CNC(=O)c1sc2ncnc(N3CCc4ccccc4C3)c2c1C |  | inconclusive: 3.26 µM [falling, single point]
69 | CCC(Cc1ccccc1)NC(=O)C1CCN(S(=O)(=O)c2ccc3c(c2)CC(C)N3C(C)=O)CC1 (stereo unspecified) |  | inconclusive: 35.5 µM [rising, single point]
70 | CC(C)N1CCC(N2CCN(C/C=C/c3ccccc3)CC2CCO)CC1 (stereo unspecified) | inconclusive: -9.16% | 
71 | CCOC(=O)N1CCN(c2cc(=O)n(-c3ccc(OCC)cc3)c(=O)[nH]2)CC1 | inconclusive: 0.511% | 
72 | CC(C)C(=O)Nc1ccc(NC(=O)c2ccccc2Cl)nc1 |  | inconclusive: 18.4 µM [falling, single point]
73 | Cc1ccc(C)c(N2C(=O)C3C4C=CC(CC4)C3C2=O)c1 (stereo unspecified) | inactive | 
74 | CCN1CCN(CCCNC(=O)c2ccc(/C=C3/Sc4ccccc4N(Cc4ccccc4F)C3=O)cc2)CC1 |  | inconclusive: 35.5 µM [falling, single point]
75 | O=C(O)C1CC(=O)N(c2ccc3c(c2)OCCO3)C1 (stereo unspecified) | inactive | 
76 | Cc1ccccc1C(=O)NC(CC(C)C)C(=O)Nc1ccc(S(N)(=O)=O)cc1 (stereo unspecified) | inactive | 
77 | O=C(C1CCN(S(=O)(=O)c2cccc3nsnc23)CC1)N1CCc2ccccc2C1 | inactive | 
78 | CC(C)C(=O)Nc1ccc(C(=O)c2ccccc2)cc1 | inactive | 
79 | Cc1ccc(NC(=S)NNC(=O)c2nn(C)c(C)c2Cl)cc1 | inconclusive: -17.2% | 
80 | Cc1ccc(N(C(=O)c2csnn2)C(C(=O)NC2CCCCC2)c2ccncc2)cc1 (stereo unspecified) | inconclusive: -1.32% | 
81 | CCOC(=O)c1cc(-c2ccc(Cl)cc2)nc2onc(C)c12 | inconclusive: 7.98% | 
